Measurements: article doi:10.1101/523670

Molecular target: GST-Chm7 (S. cerevisiae (budding yeast))
Test: pull-down

B1: Heh1 WH domain (heh1(735-834)) (domain or fragment, UniProt Q03707 735-834)
chain: IEELVTQTMEKLKFQKIKSMSDPKENAYLSIVQLRDIFLSDIVDLKYKNQLWSEVVKYLEHNNSNIKSNLTEIRGEIMKCWEWIGPMELNEPKDSAENKI
  binding: no binding

These are yes or no findings as the source states them, for the method shown.
